Data as given in the supplement of paper PMC10382679.
Single values of this set are uncertain.

B1: Rpb7; numbered along this chain (parent)
chain: MFFIKDLSLNITLHPSFFGPRMKQYLKTKLLEEVEGSCTGKFGYILCVLDYDNIDIQRGRILPTDGSAEFNVKYRAVVFKPFKGEVVDGTVVSCSQHGFEVQVGPMKVFVTKHLMPQDLTFNAGSNPPSYQSSEDVITIKSRIRVKIEGCISQVSSIHAIGSIKEDYLGAI

What was measured:
[1] = variants of: B1; experiment: log2 fold change of mutant abundance, UV-irradiated vs unirradiated; higher = more UV resistant (enriched after UV); details: with Saccharomyces cerevisiae rad7Δ rad26Δ; UV dose (J/m2): 10; genetic background: rad7Δ rad26Δ rpb7Δ + plasmid RPB7 library; outgrowth: 10 cell divisions
[2] = variants of: B1; experiment: NOISeq theta enrichment statistic, UV-irradiated vs unirradiated (dimensionless); higher = more UV resistant (enriched after UV); details: with Saccharomyces cerevisiae rad7Δ rad26Δ; UV dose (J/m2): 10; genetic background: rad7Δ rad26Δ rpb7Δ + plasmid RPB7 library; outgrowth: 10 cell divisions

Variant	log2 fold change of mutant abundance [1]	NOISeq theta enrichment statistic [2]
MFFIKDLSLNITLHPSFFGPRMKQYLKTKLLEEVEGSCTGKFGYILCVLDYDNIDIQRGRILPTDGSAEFNVKYRAVVFKPFKGEVVDCTVVSCSQHGFEVQVGPMKVFVTKHLMPQDLTFNAGSNPPSYQSSEDVITIKSRIRVKIEGCISQVSSIHAIGSIKEDYLGAI	-0.0213	-0.0641
MFFIKDLSLNITLHPSFFGPRMKQYLKTKLLEEVEGSCTGKFGYILCVLDYDNIDIQRGRILPTDGSAEFNVKYRAVVFKPFKGEVVDETVVSCSQHGFEVQVGPMKVFVTKHLMPQDLTFNAGSNPPSYQSSEDVITIKSRIRVKIEGCISQVSSIHAIGSIKEDYLGAI	-0.224	-0.327
MFFIKDLSLNITLHPSFFGPRMKQYLKTKLLEEVEGSCTGKFGYILCVLDYDNIDIQRGRILPTDGSAEFNVKYRAVVFKPFKGEVVDATVVSCSQHGFEVQVGPMKVFVTKHLMPQDLTFNAGSNPPSYQSSEDVITIKSRIRVKIEGCISQVSSIHAIGSIKEDYLGAI	0.0124	0.0278
MFFIKDLSLNITLHPSFFGPRMKQYLKTKLLEEVEGSCTGKFGYILCVLDYDNIDIQRGRILPTDGSAEFNVKYRAVVFKPFKGEVVDDTVVSCSQHGFEVQVGPMKVFVTKHLMPQDLTFNAGSNPPSYQSSEDVITIKSRIRVKIEGCISQVSSIHAIGSIKEDYLGAI	0.0257	0.107
MFFIKDLSLNITLHPSFFGPRMKQYLKTKLLEEVEGSCTGKFGYILCVLDYDNIDIQRGRILPTDGSAEFNVKYRAVVFKPFKGEVVDHTVVSCSQHGFEVQVGPMKVFVTKHLMPQDLTFNAGSNPPSYQSSEDVITIKSRIRVKIEGCISQVSSIHAIGSIKEDYLGAI	0.208	0.118
MFFIKDLSLNITLHPSFFGPRMKQYLKTKLLEEVEGSCTGKFGYILCVLDYDNIDIQRGRILPTDGSAEFNVKYRAVVFKPFKGEVVDFTVVSCSQHGFEVQVGPMKVFVTKHLMPQDLTFNAGSNPPSYQSSEDVITIKSRIRVKIEGCISQVSSIHAIGSIKEDYLGAI	-0.162	-0.0797
MFFIKDLSLNITLHPSFFGPRMKQYLKTKLLEEVEGSCTGKFGYILCVLDYDNIDIQRGRILPTDGSAEFNVKYRAVVFKPFKGEVVMGTVVSCSQHGFEVQVGPMKVFVTKHLMPQDLTFNAGSNPPSYQSSEDVITIKSRIRVKIEGCISQVSSIHAIGSIKEDYLGAI	0.0107	0.00933
MFFIKDLSLNITLHPSFFGPRMKQYLKTKLLEEVEGSCTGKFGYILCVLDYDNIDIQRGRILPTDGSAEFNVKYRAVVFKPFKGEVVKGTVVSCSQHGFEVQVGPMKVFVTKHLMPQDLTFNAGSNPPSYQSSEDVITIKSRIRVKIEGCISQVSSIHAIGSIKEDYLGAI	0.0281	0.0443
MFFIKDLSLNITLHPSFFGPRMKQYLKTKLLEEVEGSCTGKFGYILCVLDYDNIDIQRGRILPTDGSAEFNVKYRAVVFKPFKGEVVTGTVVSCSQHGFEVQVGPMKVFVTKHLMPQDLTFNAGSNPPSYQSSEDVITIKSRIRVKIEGCISQVSSIHAIGSIKEDYLGAI	0.0562	0.0724
MFFIKDLSLNITLHPSFFGPRMKQYLKTKLLEEVEGSCTGKFGYILCVLDYDNIDIQRGRILPTDGSAEFNVKYRAVVFKPFKGEVVPGTVVSCSQHGFEVQVGPMKVFVTKHLMPQDLTFNAGSNPPSYQSSEDVITIKSRIRVKIEGCISQVSSIHAIGSIKEDYLGAI	0.437	0.326
MFFIKDLSLNITLHPSFFGPRMKQYLKTKLLEEVEGSCTGKFGYILCVLDYDNIDIQRGRILPTDGSAEFNVKYRAVVFKPFKGEVVYGTVVSCSQHGFEVQVGPMKVFVTKHLMPQDLTFNAGSNPPSYQSSEDVITIKSRIRVKIEGCISQVSSIHAIGSIKEDYLGAI	0.142	0.51
MFFIKDLSLNITLHPSFFGPRMKQYLKTKLLEEVEGSCTGKFGYILCVLDYDNIDIQRGRILPTDGSAEFNVKYRAVVFKPFKGEVVSGTVVSCSQHGFEVQVGPMKVFVTKHLMPQDLTFNAGSNPPSYQSSEDVITIKSRIRVKIEGCISQVSSIHAIGSIKEDYLGAI	-0.117	-0.116
MFFIKDLSLNITLHPSFFGPRMKQYLKTKLLEEVEGSCTGKFGYILCVLDYDNIDIQRGRILPTDGSAEFNVKYRAVVFKPFKGEVVLGTVVSCSQHGFEVQVGPMKVFVTKHLMPQDLTFNAGSNPPSYQSSEDVITIKSRIRVKIEGCISQVSSIHAIGSIKEDYLGAI	-0.288	-0.243
MFFIKDLSLNITLHPSFFGPRMKQYLKTKLLEEVEGSCTGKFGYILCVLDYDNIDIQRGRILPTDGSAEFNVKYRAVVFKPFKGEVVVGTVVSCSQHGFEVQVGPMKVFVTKHLMPQDLTFNAGSNPPSYQSSEDVITIKSRIRVKIEGCISQVSSIHAIGSIKEDYLGAI	0.036	0.214
MFFIKDLSLNITLHPSFFGPRMKQYLKTKLLEEVEGSCTGKFGYILCVLDYDNIDIQRGRILPTDGSAEFNVKYRAVVFKPFKGEVVRGTVVSCSQHGFEVQVGPMKVFVTKHLMPQDLTFNAGSNPPSYQSSEDVITIKSRIRVKIEGCISQVSSIHAIGSIKEDYLGAI	-0.165	-0.124
MFFIKDLSLNITLHPSFFGPRMKQYLKTKLLEEVEGSCTGKFGYILCVLDYDNIDIQRGRILPTDGSAEFNVKYRAVVFKPFKGEVVNGTVVSCSQHGFEVQVGPMKVFVTKHLMPQDLTFNAGSNPPSYQSSEDVITIKSRIRVKIEGCISQVSSIHAIGSIKEDYLGAI	0.0319	0.133
MFFIKDLSLNITLHPSFFGPRMKQYLKTKLLEEVEGSCTGKFGYILCVLDYDNIDIQRGRILPTDGSAEFNVKYRAVVFKPFKGEVVQGTVVSCSQHGFEVQVGPMKVFVTKHLMPQDLTFNAGSNPPSYQSSEDVITIKSRIRVKIEGCISQVSSIHAIGSIKEDYLGAI	0.38	0.228

An excerpt of these results, with bars between the fields:
Variant | log2 fold change of mutant abundance [1] | NOISeq theta enrichment statistic [2]
MFFIKDLSLNITLHPSFFGPRMKQYLKTKLLEEVEGSCTGKFGYILCVLDYDNIDIQRGRILPTDGSAEFNVKYRAVVFKPFKGEVVKGTVVSCSQHGFEVQVGPMKVFVTKHLMPQDLTFNAGSNPPSYQSSEDVITIKSRIRVKIEGCISQVSSIHAIGSIKEDYLGAI | 0.0281 | 0.0443
MFFIKDLSLNITLHPSFFGPRMKQYLKTKLLEEVEGSCTGKFGYILCVLDYDNIDIQRGRILPTDGSAEFNVKYRAVVFKPFKGEVVTGTVVSCSQHGFEVQVGPMKVFVTKHLMPQDLTFNAGSNPPSYQSSEDVITIKSRIRVKIEGCISQVSSIHAIGSIKEDYLGAI | 0.0562 | 0.0724
